Measurements: the supplement of paper PMC12823440, “Inhibitors supercharge kinase turnover through native proteolytic circuits” (Nature, 2025)
Counter-ions that a name gives are not always drawn. This is one part of the list. Hit calls seldom repeat between salt and free forms of one compound.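 Kinases were expressed as nanoluciferase fusions in K562 cells and luminescence was read every 4 h between 2 and 18 h as percent of control, DMSO set to 100% and a positive control to 0%. A time point counts as decreased when the signal drops significantly (2 sigma). The hit call is the authors' own, does not follow from the count of time points alone, and its rule is not shown.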

What follows are compounds tested against MAP2K1 (UniProt Q02750) (assay: kinase-Nluc reporter destabilization hit call (1 = scored as downregulated) (binary); higher = compound decreases kinase abundance). Settings: 2.5 µM; K562; 2-18 h.

| Structure (SMILES) | kinase-Nluc reporter destabilization hit call |
| --- | --- |
| Cc1nc(Nc2ncc(C(=O)Nc3c(C)cccc3Cl)s2)cc(N2CCN(CCO)CC2)n1 [Dasatinib] | inactive: 0 |
| CC1(C)C(=O)N([C@H]2CCc3c(O)cccc32)c2nc(Nc3cccc(CN4CCCC4)c3)ncc21 | inactive: 0 |
| CNC(=O)c1cc(Oc2ccc(NC(=O)Nc3ccc(Cl)c(C(F)(F)F)c3)cc2)ccn1 [Sorafenib] | inactive: 0 |
| CN1CCN(c2ccc3nc(-c4c(N)c5c(F)cccc5[nH]c4=O)[nH]c3c2)CC1 [Dovitinib (lactate)] | inactive: 0 |
| CC1(C)CNc2cc(NC(=O)c3cccnc3NCc3ccncc3)ccc21 [Motesanib] | inactive: 0 |
| Cc1cc(Nc2cc(N3CCN(C)CC3)nc(/C=C/c3ccccc3)n2)n[nH]1 | inactive: 0 |

Same assay, conditions: 10 µM; K562; 2-18 h

| Structure (SMILES) | kinase-Nluc reporter destabilization hit call |
| --- | --- |
| COc1nccc(-c2c(-c3ccc(F)cc3)ncn2C2CCNCC2)n1 | inactive: 0 |
| COc1ccc(-c2c[nH]c3nccc(-c4ccsc4)c23)c(OC)c1 | inactive: 0 |
| C[C@@]1(C(=O)Nc2ccc(F)nc2)CCCN1c1nc(Nc2cc(C3CC3)n[nH]2)c2cccn2n1 | inactive: 0 |
| Cc1ccc(Nc2nccc(N(C)c3ccc4c(C)n(C)nc4c3)n2)cc1S(N)(=O)=O [Pazopanib] | inactive: 0 |
| Cc1cc2c(F)c(Oc3ncnn4cc(OC[C@@H](C)O)c(C)c34)ccc2[nH]1 [Brivanib] | inactive: 0 |
| N#CC(=Cc1cc(Cl)cc(Cl)c1)c1cccnc1 | inactive: 0 |
| C=CC(=O)Nc1cc2c(Nc3ccc(F)c(Cl)c3)ncnc2cc1OCCCN1CCOCC1 [Canertinib] | inactive: 0 |
| Cc1ccc(Nc2nccc(N(C)c3ccc4c(C)n(C)nc4c3)n2)cc1S(N)(=O)=O [Pazopanib (Hydrochloride)] | inactive: 0 |
| CC(C)(C)n1nc(-c2ccc(Cl)cc2)c2c(N)ncnc21 | inactive: 0 |
| COc1cc2ncnc(Nc3ccc(F)c(Cl)c3)c2cc1OCCCN1CCOCC1 [Gefitinib] | inactive: 0 |
| O=C(Nc1cccc(Cl)c1)Nc1ncc(CCNc2ncnc3ccsc23)s1 [SNS-314 (mesylate)] | inactive: 0 |
| CC[C@@H]1C(=O)N(C)c2cnc(Nc3ccc(C(=O)NC4CCN(C)CC4)cc3OC)nc2N1C1CCCC1 | inactive: 0 |
| CC#CC(=O)N1CCC[C@H]1c1nc(-c2ccc(C(=O)Nc3ccccn3)cc2)c2c(N)nccn12 [Acalabrutinib] | inactive: 0 |
| O=S(=O)(c1cccc2c(O)nccc12)N1CCCNCC1 [Hydroxyfasudil (hydrochloride)] | inactive: 0 |
| O=C1Cc2c([nH]c3ccc(Br)cc23)-c2ccccc2N1 [Kenpaullone] | inactive: 0 |
| O=S(=O)(c1cccc2c(O)nccc12)N1CCCNCC1 [Hydroxyfasudil] | inactive: 0 |
| CC(C)N(CCC(=O)c1ccc2ccccc2c1)Cc1ccccc1 | inactive: 0 |
| O=C(NCCCNc1nc(Nc2cccc(CN3CCOCC3)c2)ncc1C1CC1)C1CCC1 | inactive: 0 |
| CNC(=O)c1cc(Oc2ccc(NC(=O)Nc3ccc(Cl)c(C(F)(F)F)c3)cc2)ccn1 [Sorafenib (Tosylate)] | inactive: 0 |

A second format for some results above.
Structure (SMILES),kinase-Nluc reporter destabilization hit call
O=C(Nc1cccc(Cl)c1)Nc1ncc(CCNc2ncnc3ccsc23)s1 [SNS-314 (mesylate)],inactive: 0
CC[C@@H]1C(=O)N(C)c2cnc(Nc3ccc(C(=O)NC4CCN(C)CC4)cc3OC)nc2N1C1CCCC1,inactive: 0
CC#CC(=O)N1CCC[C@H]1c1nc(-c2ccc(C(=O)Nc3ccccn3)cc2)c2c(N)nccn12 [Acalabrutinib],inactive: 0
O=S(=O)(c1cccc2c(O)nccc12)N1CCCNCC1 [Hydroxyfasudil (hydrochloride)],inactive: 0
O=C1Cc2c([nH]c3ccc(Br)cc23)-c2ccccc2N1 [Kenpaullone],inactive: 0
O=S(=O)(c1cccc2c(O)nccc12)N1CCCNCC1 [Hydroxyfasudil],inactive: 0
CC(C)N(CCC(=O)c1ccc2ccccc2c1)Cc1ccccc1,inactive: 0
O=C(NCCCNc1nc(Nc2cccc(CN3CCOCC3)c2)ncc1C1CC1)C1CCC1,inactive: 0
CNC(=O)c1cc(Oc2ccc(NC(=O)Nc3ccc(Cl)c(C(F)(F)F)c3)cc2)ccn1 [Sorafenib (Tosylate)],inactive: 0

Each compound was assayed against MAP2K2 (UniProt P36507) in the same assay as above. Settings: 2.5 µM; K562; 2-18 h.

| Structure (SMILES) | kinase-Nluc reporter destabilization hit call |
| --- | --- |
| Nc1nc(Nc2ccc(S(N)(=O)=O)cc2)nn1C(=O)c1c(F)cccc1F | inactive: 0 |
| CCOc1cc2ncc(C#N)c(Nc3ccc(F)c(Cl)c3)c2cc1NC(=O)/C=C/CN(C)C [Pelitinib] | inactive: 0 |
| Nc1ncnc2c1c(-c1cnc3[nH]ccc3c1)nn2C1CCCC1 | inactive: 0 |
| CCN(CC)CCNC(=O)c1c(C)[nH]c(/C=C2\C(=O)Nc3ccc(F)cc32)c1C [Sunitinib] | inactive: 0 |
| C=CC(=O)Nc1cc2c(Nc3ccc(F)c(Cl)c3)ncnc2cc1OCCCN1CCOCC1 [Canertinib (dihydrochloride)] | inactive: 0 |
| Cc1[nH]c(/C=C2\C(=O)Nc3ccc(F)cc32)c(C)c1C(=O)NC[C@H](O)CN1CCOCC1 | inactive: 0 |
| Cc1cc(Nc2cc(N3CCN(C)CC3)nc(/C=C/c3ccccc3)n2)n[nH]1 [ENMD-2076 (Tartrate)] | inactive: 0 |
| O=C(Nc1cccc(Nc2nccc(Nc3cccc(C(F)(F)F)c3)n2)c1)C1CC1 [Aurora kinase inhibitor-3] | inactive: 0 |
| CN1CCN(c2ccc3nc(-c4c(N)c5c(F)cccc5[nH]c4=O)[nH]c3c2)CC1 [Dovitinib] | inactive: 0 |
| O=C1NCCc2[nH]c(-c3ccncc3)cc21 | inactive: 0 |
| CC1(C)CNc2cc(NC(=O)c3cccnc3NCc3ccncc3)ccc21 [Motesanib (Diphosphate)] | inactive: 0 |
| CC(=O)c1c(C)c2cnc(Nc3ccc(N4CCN(C(=O)CCCCCC(=O)N[C@H](C(=O)N5C[C@H](O)C[C@H]5C(=O)NCc5ccc(-c6scnc6C)cc5)C(C)(C)C)CC4)cn3)nc2n(C2CCCC2)c1=O | inactive: 0 |
| CC(C)n1nc(-c2cc3cc(O)ccc3[nH]2)c2c(N)ncnc21 [Torkinib] | inactive: 0 |
| Cc1nc(Nc2ncc(C(=O)Nc3c(C)cccc3Cl)s2)cc(N2CCN(CCO)CC2)n1 [Dasatinib] | inactive: 0 |
| CC1(C)C(=O)N([C@H]2CCc3c(O)cccc32)c2nc(Nc3cccc(CN4CCCC4)c3)ncc21 | inactive: 0 |
| CNC(=O)c1cc(Oc2ccc(NC(=O)Nc3ccc(Cl)c(C(F)(F)F)c3)cc2)ccn1 [Sorafenib] | inactive: 0 |
| CN1CCN(c2ccc3nc(-c4c(N)c5c(F)cccc5[nH]c4=O)[nH]c3c2)CC1 [Dovitinib (lactate)] | inactive: 0 |
| CC1(C)CNc2cc(NC(=O)c3cccnc3NCc3ccncc3)ccc21 [Motesanib] | inactive: 0 |
| Cc1cc(Nc2cc(N3CCN(C)CC3)nc(/C=C/c3ccccc3)n2)n[nH]1 | inactive: 0 |
